# Measurements as given in PubChem BioAssay AID504834 (National Center for Advancing Translational Sciences (NCATS), 2011).
# Screen size: about 320,000 compounds; about 22,000 (6.9%) were called active. The inconclusive results got no clear call from the source; some entries with a clear call stand among them for comparison. Calls follow the shape of the dose curve; as a rule, active = well fitted inhibition curve with a large enough effect; inconclusive = small, poorly fitted or top-dose-only effect, or another doubt; inactive = no such curve, though single readings can be large or run the other way. Where the call is inconclusive, the potency comes from a doubtful curve fit.
# Assay: Primary qHTS for delayed death inhibitors of the malarial parasite plastid, 96 hour incubation
# Conditions: P. falciparum luciferase reporter growth; series mostly up to 28.7 µM; activity change, negative = inhibition: at the top concentration
# Method in brief: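 Delayed-death screen, second-generation endpoint: infected erythrocytes, 2% hematocrit, 0.05% parasitemia final; 96 hours at 37 C, 5% CO2; luciferase detection reagent; luminescence decrease equals reduced growth.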
# % is scaled to controls: 0 for no effect and ±100 for the full control effect; potency is read from the fitted curve at half-maximal effect.
SMILES,"activity change, negative = inhibition",Potency
O=C(NCC1CCCCC1)C1CCC(=O)N(CCc2cccc(F)c2)C1 (centres undefined),inactive: 2.17%,–
CC1(C)CC(=O)C(C(C2=C(O)CC(C)(C)CC2=O)c2ccc([N+](=O)[O-])cc2)C(=O)C1 (centres undefined),–,"inconclusive: 18.5 µM [inhibitor, single point]"
NNC(=O)c1nc[nH]c1C(=O)Nc1ccc(Cl)cc1C(=O)c1ccccc1,–,"inconclusive: 18.5 µM [inhibitor, single point]"
C=CCNc1ncnc2sc(SC)nc12,inactive: 1.54%,–
CCOC(=O)c1cnc2c(c(C)nn2C)c1Oc1cc(Cl)cc(Cl)c1,–,"inconclusive: 13.1 µM [inhibitor, partial curve]"
CC(=O)c1ccc2c(ccc3ccccc32)c1,inactive: 55.4%,–
COc1ccccc1NS(=O)(=O)c1cc2c3c(c1)CCN3C(=O)CC2,inactive: -11.6%,–
CCOC(=O)N1CCN(c2ccc(Cl)cc2)CC1,–,"inconclusive: 20.8 µM [inhibitor, partial curve, poor fit]"
NNC(=O)Cn1c(-c2ccccc2)cc2ccccc21,–,"inconclusive: 11.7 µM [inhibitor, partial curve, poor fit]"
O=C(CSc1nnc(NC(=O)C2CC2)s1)Nc1cccc(F)c1,–,active: 2.94 µM
CCCCN(CC)CCCNC(=O)CN1C(=O)CSc2ccc(S(=O)(=O)N3CCOCC3)cc21,–,"inconclusive: 14.7 µM [inhibitor, partial curve, poor fit]"
CC(C)[C@H](NC(=O)N1CC(=O)Nc2ccccc21)C(=O)N[C@H](Cc1ccccc1)C(=O)O,inactive: -10.8%,–
O=C(c1cc(-c2cccc(Cl)c2)nc2ccccc12)N1CCN(c2ccccn2)CC1,inactive: 52.8%,–
Cc1cc(NC(=O)CCN2C(=O)C3C4CCC(C4)C3C2=O)c(C)cc1Br (centres undefined),–,"inconclusive: 1.04 µM [inhibitor, partial curve, poor fit]"
c1ccc2sc(SSc3nc4ccccc4s3)nc2c1,inactive: -2.63%,–
Cc1ccccc1-n1c(SCC(=O)c2cc(C)n(C)c2C)nnc1-c1cccnc1,–,"inconclusive: 13.1 µM [inhibitor, single point]"
Cc1ccc(CNS(=O)(=O)c2cc(F)ccc2CN2C(=O)c3cccnc3C2=O)o1,–,"inconclusive: 11.7 µM [inhibitor, single point]"
COC(=O)c1ccc(NC(=O)C2CCN(C(=O)c3cc(OC)c(OC)c(OC)c3)CC2)cc1,–,"inconclusive: 9.28 µM [inhibitor, single point]"
COc1ccc(/C=N/Nc2nc(-c3cccc(S(=O)(=O)N4CCCC4)c3)cs2)c(OC)c1,–,"inconclusive: 18.5 µM [inhibitor, partial curve, poor fit]"
N#CCOC(=O)c1sccc1-n1cccc1,–,"inconclusive: 4.15 µM [inhibitor, single point]"
COc1cc(OC)cc(-c2c(C#Cc3ccsc3)c3cc(-c4ccc(C(N)=O)cc4)ccc3n2C)c1,–,active: 1.04 µM
Cc1ccc(-c2nc(SC(C)C(=O)c3c(N)n(C)c(=O)n(C)c3=O)n[nH]2)cc1 (centres undefined),inactive: -15.1%,–
COc1cc(OC)cc(OCC(O)Cn2cnc(-c3ccccc3)c2)c1 (centres undefined),inactive: 0.764%,–

# Rewritten as tab-separated lines: entries from further up.
SMILES	activity change, negative = inhibition	Potency
CC1(C)CC(=O)C(C(C2=C(O)CC(C)(C)CC2=O)c2ccc([N+](=O)[O-])cc2)C(=O)C1 (centres undefined)	–	inconclusive: 18.5 µM [inhibitor, single point]
NNC(=O)c1nc[nH]c1C(=O)Nc1ccc(Cl)cc1C(=O)c1ccccc1	–	inconclusive: 18.5 µM [inhibitor, single point]
C=CCNc1ncnc2sc(SC)nc12	inactive: 1.54%	–
CCOC(=O)c1cnc2c(c(C)nn2C)c1Oc1cc(Cl)cc(Cl)c1	–	inconclusive: 13.1 µM [inhibitor, partial curve]
CC(=O)c1ccc2c(ccc3ccccc32)c1	inactive: 55.4%	–
COc1ccccc1NS(=O)(=O)c1cc2c3c(c1)CCN3C(=O)CC2	inactive: -11.6%	–
CCOC(=O)N1CCN(c2ccc(Cl)cc2)CC1	–	inconclusive: 20.8 µM [inhibitor, partial curve, poor fit]
NNC(=O)Cn1c(-c2ccccc2)cc2ccccc21	–	inconclusive: 11.7 µM [inhibitor, partial curve, poor fit]
O=C(CSc1nnc(NC(=O)C2CC2)s1)Nc1cccc(F)c1	–	active: 2.94 µM
CCCCN(CC)CCCNC(=O)CN1C(=O)CSc2ccc(S(=O)(=O)N3CCOCC3)cc21	–	inconclusive: 14.7 µM [inhibitor, partial curve, poor fit]
CC(C)[C@H](NC(=O)N1CC(=O)Nc2ccccc21)C(=O)N[C@H](Cc1ccccc1)C(=O)O	inactive: -10.8%	–
O=C(c1cc(-c2cccc(Cl)c2)nc2ccccc12)N1CCN(c2ccccn2)CC1	inactive: 52.8%	–
Cc1cc(NC(=O)CCN2C(=O)C3C4CCC(C4)C3C2=O)c(C)cc1Br (centres undefined)	–	inconclusive: 1.04 µM [inhibitor, partial curve, poor fit]
c1ccc2sc(SSc3nc4ccccc4s3)nc2c1	inactive: -2.63%	–
Cc1ccccc1-n1c(SCC(=O)c2cc(C)n(C)c2C)nnc1-c1cccnc1	–	inconclusive: 13.1 µM [inhibitor, single point]
Cc1ccc(CNS(=O)(=O)c2cc(F)ccc2CN2C(=O)c3cccnc3C2=O)o1	–	inconclusive: 11.7 µM [inhibitor, single point]
COC(=O)c1ccc(NC(=O)C2CCN(C(=O)c3cc(OC)c(OC)c(OC)c3)CC2)cc1	–	inconclusive: 9.28 µM [inhibitor, single point]
COc1ccc(/C=N/Nc2nc(-c3cccc(S(=O)(=O)N4CCCC4)c3)cs2)c(OC)c1	–	inconclusive: 18.5 µM [inhibitor, partial curve, poor fit]
N#CCOC(=O)c1sccc1-n1cccc1	–	inconclusive: 4.15 µM [inhibitor, single point]

# (listing goes on)

SMILES,"activity change, negative = inhibition",Potency
COc1cc(NC(=O)c2nn(C)c3c2CS(=O)(=O)c2ccccc2-3)cc(OC)c1,–,"inconclusive: 14.7 µM [inhibitor, single point]"
COc1cc(C(=O)O)ccc1OC(C)=O,–,"inconclusive: 10.4 µM [inhibitor, single point]"
COc1cccc(CNC2CN3CCC2CC3)c1OC (centres undefined),–,"inconclusive: 18.5 µM [inhibitor, single point]"
CCOC(=O)c1[nH]nc(-c2cc(CC)c(O)cc2O)c1-c1cscn1,–,"inconclusive: 18.5 µM [inhibitor, single point]"
O=C(CCN1C(=O)c2ccccc2C1=O)C1=NN[C@@H]2C(=O)N(c3ccc4c(c3)OCO4)C(=O)[C@H]12,inactive: 5.45%,–
CCCN1CCN(CCCNC(=O)c2cc3c(=O)[nH]c4ccc(C)cc4c3s2)CC1,–,"inconclusive: 9.28 µM [inhibitor, partial curve, poor fit]"
COc1nc(Nc2nc3ccccc3c(=O)[nH]2)nc2ccc(C)cc12,–,"inconclusive: 5.22 µM [inhibitor, partial curve]"
CCc1c(C)nc2ncnn2c1Nc1ccccc1C,inactive: -2.79%,–
O=C(NC(=S)Nc1ccc(CN2CCOCC2)cc1)c1ccc(-c2ccc(Cl)cc2)o1,–,"inconclusive: 18.5 µM [inhibitor, single point]"
C/C(=N/NC(=O)CN1CCN(S(=O)(=O)c2ccc(C)cc2)CC1)c1ccco1,inactive: -10.5%,–
Cc1ccc(OCc2nnc(SCC(=O)O)n2N)cc1,inactive: -2.52%,–
COc1ccccc1NC(=O)CSc1nnc(C2CCCCC2)n1-c1ccccc1,–,"inconclusive: 18.5 µM [inhibitor, single point]"
O=C(O)c1ccccc1C(=O)O,–,"inconclusive: 2.08 µM [inhibitor, partial curve]"
COc1ccc(CN2CCNC(=O)C2CC(=O)N2CCCCO2)c(OC)c1 (centres undefined),inactive: 4.85%,–
CCOC(=O)CSC1=C(C#N)C(c2ccc(F)cc2)C(C(C)=O)=C(C)N1 (centres undefined),–,"inconclusive: 1.65 µM [inhibitor, single point]"
O=C(NNC(=S)Nc1ccc(Cl)cc1Cl)c1cccnc1,–,"inconclusive: 18.5 µM [inhibitor, partial curve, poor fit]"
CCN(CC)CCNC(=O)CN1C(=O)COc2ccc(S(=O)(=O)N3CCOCC3)cc21,–,"inconclusive: 1.17 µM [inhibitor, partial curve]"
O=C(COC(=O)c1ccccc1OCC(=O)Nc1ccc(Br)cc1)Nc1ccccc1,–,"inconclusive: 0.415 µM [inhibitor, partial curve, poor fit]"
CCNC(=S)N(CCCN(C)C)Cc1cc2cc3c(cc2[nH]c1=O)OCCO3,–,"inconclusive: 18.5 µM [inhibitor, single point]"
CC(C)(O)C#Cc1ccc(C(=O)N2CCN(c3ccc([N+](=O)[O-])cc3)CC2)cc1,–,"inconclusive: 0.147 µM [inhibitor, full curve]"
CCC(C)(C)C1CCc2nc3ccccc3c(C(=O)OC(C)C(=O)Nc3c(C)n(C)n(-c4ccccc4)c3=O)c2C1 (centres undefined),–,active: 10.4 µM
CCOC(=O)COc1ccc(/C=C/[N+](=O)[O-])c(OCC(=O)OCC)c1,–,"inconclusive: 0.329 µM [inhibitor, full curve, poor fit]"
O=c1cnnc(Nc2ccc(Nc3ccccc3)cc2)[nH]1,–,"inconclusive: 3.29 µM [inhibitor, full curve, poor fit]"

SMILES,"activity change, negative = inhibition",Potency
COC(=O)Nc1cc([N+](=O)[O-])ccc1OC,–,"inconclusive: 11.7 µM [inhibitor, single point]"
O=C1/C(=C\c2cccs2)Sc2ccc3ccccc3c21,inactive: 11.7%,–
CCCC(=O)Nc1cc(C(=O)N2CCC3(CC2)OCCO3)ccc1S(=O)(=O)c1ccc(C)cc1,–,"inconclusive: 20.8 µM [inhibitor, partial curve, poor fit]"
CC1=CC(=Nc2c(C)n(C)n(-c3ccccc3)c2=O)C=CC1=O,–,"inconclusive: 18.5 µM [inhibitor, single point]"
CC(=O)c1cnc2cc(C)nn2c1C,–,"inconclusive: 11.7 µM [inhibitor, single point]"
O=C(NCCC(=O)N1CCN(S(=O)(=O)c2ccccc2)CC1)c1ccc(Br)cc1,–,"inconclusive: 4.15 µM [inhibitor, single point]"
O=C(NC1CCCCC1)C1Cc2ccccc2CN1S(=O)(=O)c1ccc(F)cc1 (centres undefined),–,active: 13.1 µM
CN(C)C(=O)Cn1cnc2c(cnn2-c2ccc(F)cc2)c1=O,inactive: 42.1%,–
NS(=O)(=O)c1ccc(N2N=C(c3ccccc3)CC2c2ccccc2)cc1 (centres undefined),–,active: 9.28 µM
Cc1cc(-c2nc3ncccc3o2)ccc1N,–,"inconclusive: 18.5 µM [inhibitor, single point]"
COc1ccccc1NS(=O)(=O)c1cccc(C(=O)OCc2nc3ccccc3s2)c1,inactive: 59.2%,–
CC(C)Cn1c(N)c(C(=O)CSc2nnc(C3CC3)n2C2CC2)c(=O)n(C)c1=O,–,active: 8.28 µM
CC(C)CCn1c(CN2CCOCC2)nc2c1c(=O)n(C)c(=O)n2C,–,"inconclusive: 6.57 µM [inhibitor, partial curve]"
CC(=O)Nc1cc2ccccc2oc1=O,inactive: 235%,–
CC1(C)CC(=O)C(CC(=O)Nc2ccc(S(N)(=O)=O)cc2)=C(O)C1,–,"inconclusive: 0.0033 µM [inhibitor, full curve, poor fit]"
CCCCOC(=O)c1ccc(NC(=S)N2CCN(c3ncc4c(=O)c(C(=O)O)cn(CC)c4n3)CC2)cc1,–,active: 1.31 µM
Cc1coc2c(C)c3oc(=O)c(CCC(=O)N[C@@H](C)C(=O)N[C@@H](Cc4ccccc4)C(=O)O)c(C)c3cc12,–,"inconclusive: 0.738 µM [inhibitor, full curve, poor fit]"
CNC(=O)/C(C#N)=C/c1c(N(Cc2ccccc2)Cc2ccccc2)nc2ccccn2c1=O,–,"inconclusive: 18.5 µM [inhibitor, single point]"
COCCn1c(SCc2cccc(F)c2)nc2cc(C(=O)OC)ccc2c1=O,–,"inconclusive: 13.1 µM [inhibitor, partial curve]"
COc1cc(/C=C(\NC(=O)c2ccccc2)C(=O)Nc2cccc(O)c2)c([N+](=O)[O-])cc1OC,inactive: 0%,–
CCOc1cc(/C=N\Nc2ncc(F)c(N3CCOCC3)n2)ccc1Oc1nc(Cl)ncc1F,–,active: 1.85 µM
COc1ccc(C(c2nnnn2C2CCCCC2)N2CCN(c3ccccc3)CC2)cc1 (centres undefined),inactive: 157%,–
Cc1ccc(Cn2cc(SCC(=O)Nc3nccs3)c3ccccc32)cc1,–,"inconclusive: 13.1 µM [inhibitor, partial curve, poor fit]"
